Measured values reported in PubChem BioAssay AID445 (National Center for Advancing Translational Sciences (NCATS), 2006).
Several values for one entry are separate records, joined by “and”; a condition that tells them apart may be missing. Equal values may be shown once. This is one part of the list. The main result of the screen is listed elsewhere. These columns were measured beside it and carry no call. Most of these compounds were active or inconclusive in the main read-out, so they are no random draw. Words in brackets tell the shape of the fitted curve; partial curves, single points and poor fits give uncertain potencies.

Experiment: IkB Signaling
Conditions: ABC-DLBCL IkBa-CBG/CBR dual luciferase ratio (green luciferase fused to IkBa over red control in OCI-Ly3 lymphoma cells), 4 h
Procedure, shortened: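 Curves were fitted separately to fusion (green), unfused (red) and ratio luminescence, then classed by r2, magnitude and activity. Cells: OCI-Ly3, 4 h compound plus doxycycline at 37C; 10 uM MG-132 defined full response.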

[1] = measured here: IkB-luc green channel
[2] = measured here: control luc red channel

| Compound | AC50 [1] | AC50 [2] |
| --- | --- | --- |
| Cc1c2ccncc2c(C)c2c1[nH]c1ccccc12 | 7.94 µM [falling, partial curve] | 12.6 µM [falling, partial curve] and 3.98 µM [falling, partial curve] |
| COc1ccc(C(c2c(O)c3ccccc3oc2=O)c2c(C)n(C)n(-c3ccccc3)c2=O)cc1 (stereo not drawn) |  | 10 µM [falling, partial curve] |
| N#Cc1cc2c(nc1SCC(=O)Nc1cccc(C(F)(F)F)c1)C1CCN2CC1 |  | 0.631 µM [rising, full curve, poor fit] |
| CC(=O)c1cccc(NC(=O)c2cccn(Cc3cccc(C)c3)c2=O)c1 |  | 39.8 µM [falling, single point] |
| Oc1c(Cl)cc(Cl)cc1CN1CCN(Cc2ccccc2)CC1 |  | 10 µM [falling, partial curve] |
| COc1ccc(NC(=O)CN2C(=O)C(C)N=C(c3ccccc3)c3ccccc32)cc1OC (stereo not drawn) |  | 20 µM [falling, single point] |
| COc1ccc(C[C@H]2NC[C@H](O)[C@@H]2OC(C)=O)cc1 |  | 0.0631 µM [falling, full curve] |
| COc1ccc(C(=O)c2c(C)n(CCN3CCOCC3)c3cc(I)ccc23)cc1 |  | 39.8 µM [falling, partial curve] |
| COC(=O)CN1CN(c2ccccc2)C2(CCN(Cc3ccc4ccccc4c3)CC2)C1=O |  | 39.8 µM [falling, partial curve] |
| Cc1ccc(S(=O)(=O)N[C@@H](CCCCN)C(=O)CCl)cc1 | 31.6 µM [rising, partial curve] |  |
| Nc1c(C(=O)Nc2ccc(F)c(Cl)c2)sc2nc3c(cc12)N1CCC3CC1 |  | 25.1 µM [falling, partial curve] |
| CC(C)(O)[C@H]1O[C@@H]2CC[C@]3(C)[C@@]4(C)c5[nH]c6ccccc6c5C[C@@H]4CC[C@]3(O)C2=CC1=O |  | 31.6 µM [falling, partial curve] |
| CCCCC/C=C\C/C=C\C/C=C\C/C=C\CCCC(=O)Nc1ccc(O)cc1 |  | 25.1 µM [falling, partial curve, poor fit] |
| O=C(Nc1ccon1)c1cccn(Cc2cccc([N+](=O)[O-])c2)c1=O | 5.01 µM [rising, single point] |  |
| O=C(Nc1ccc2c(c1)OCO2)c1cccn(Cc2ccccc2)c1=O |  | 39.8 µM [falling, single point] |
| CCCCCn1c(=O)c(C(=O)Nc2ccncc2)c(O)c2ccccc21 |  | 0.631 µM [falling, full curve, poor fit] |
| FC(F)(F)c1ccc2c(c1)ncn2C1CCN(Cc2nnnn2C2CCCCC2)CC1 |  | 15.8 µM [falling, partial curve] |
| COC(=O)N1CCN(C(=O)Cc2ccc(Cl)c(Cl)c2)[C@H](CN2CCCC2)C1 |  | 7.94 µM [rising, full curve] |
| Cc1ccc(-c2nc(CN3C(=O)CN=C(c4ccccc4Cl)c4cc(Cl)ccc43)c(C)o2)cc1 |  | 39.8 µM [falling, single point] |
| Cc1cccc(Cn2cccc(C(=O)Nc3nnc(C)s3)c2=O)c1 |  | 2 µM [falling, full curve, poor fit] |

Already shown: an excerpt of the list.

| Compound | AC50 [1] | AC50 [2] |
| --- | --- | --- |
| COc1ccc(NC(=O)CN2C(=O)C(C)N=C(c3ccccc3)c3ccccc32)cc1OC (stereo not drawn) |  | 20 µM [falling, single point] |
| COc1ccc(C[C@H]2NC[C@H](O)[C@@H]2OC(C)=O)cc1 |  | 0.0631 µM [falling, full curve] |
| COc1ccc(C(=O)c2c(C)n(CCN3CCOCC3)c3cc(I)ccc23)cc1 |  | 39.8 µM [falling, partial curve] |

More structures.

| Compound | AC50 [1] | AC50 [2] |
| --- | --- | --- |
| O=C1CC(c2ccc(C(F)(F)F)cc2)c2c(c3ccccc3oc2=O)O1 (stereo not drawn) |  | 6.31 µM [falling, partial curve] |
| ClC1=C(Cl)C2(Cl)C3C4C=CC(C4)C3C1(Cl)C2(Cl)Cl (stereo not drawn) | 15.8 µM [rising, full curve] | 12.6 µM [rising, full curve] |
| CCC(C)(C)n1nnnc1C(c1cccs1)N1CC=C(c2ccc(F)cc2)CC1 (stereo not drawn) |  | 25.1 µM [falling, partial curve] |
| COCCCNC(=O)c1c(NC(=O)c2ccco2)n(Cc2ccccc2)c2nc3ccccc3nc12 | 25.1 µM [rising, partial curve] |  |
| COc1ccc2c(c1)[nH]c1c(C)nccc12 |  | 3.98 µM [falling, partial curve] |
| Oc1c(Cl)c(Cl)c(Cl)c(Cl)c1Cl |  | 7.94 µM [falling, full curve] |
| Cc1ccc2c(=O)n(-c3cccc(Cl)c3)c(=O)[nH]c2c1 |  | 2.51 µM [rising, partial curve] |
| CCN(CC)C(=O)c1ccc(NC(=O)COc2ccc(-c3nn(C)c(=O)c4ccccc34)cc2)cc1 |  | 15.8 µM [falling, partial curve] |
| O=C(C1CC(c2ccc(Cl)c(Cl)c2)=NO1)N1CCC2(CC1)OCCO2 (stereo not drawn) |  | 31.6 µM [falling, single point] |
| COc1ccccc1-c1nn2c(=O)cc(CN3CCN(C(=O)COc4ccccc4Cl)CC3)nc2s1 |  | 20 µM [falling, single point] |
| Cc1ccccc1-c1nc(CN2C(=O)CN=C(c3ccccc3)c3ccccc32)c(C)o1 |  | 15.8 µM [falling, partial curve] |
| COc1ccc(C[C@@H]2C(=O)N[C@H](C)C(=O)N(C)[C@@H]3C(=O)N(C)[C@@H](Cc4ccc(O)c(c4)Oc4ccc(cc4)[C@H]3O)C(=O)N[C@@H](C)C(=O)N[C@H](C)C(=O)N2C)cc1 |  | 0.126 µM [falling, full curve] |
| CC(C)[C@@]1(NC(=O)[C@H]2C[C@H]3c4cccc5[nH]cc(c45)C[C@@H]3N(C)C2)O[C@]2(O)[C@H]3CCCN3C(=O)[C@H](Cc3ccccc3)N2C1=O | 20 µM [falling, partial curve] | 15.8 µM [falling, partial curve] |
| O=c1c2ccccc2nc(/C=C/c2cccc3ccccc23)n1-c1ccc(Cl)cc1 |  | 12.6 µM [falling, partial curve] |
| Cc1cc(C)cc(NC(=O)CN2C(=O)CN=C(c3ccccc3)c3cc(Cl)ccc32)c1 |  | 15.8 µM [falling, partial curve] |
| CCC(=NCc1ccc2c(c1)OCO2)c1c(O)n(C)c(=O)n(C)c1=O |  | 15.8 µM [falling, partial curve] |
| CCCN(CCC)[C@@H]1CCc2c(OC)cccc2[C@@H]1C |  | 15.8 µM [rising, partial curve] |
| Cn1nc(-c2ccc(OCC(=O)N3CCN(Cc4ccccc4)CC3)cc2)c2ccccc2c1=O |  | 10 µM [falling, partial curve] |
| CN(C)C(=S)SSC(=S)N(C)C | 7.94 µM [rising, partial curve] | 39.8 µM [falling, single point] |
| COc1ccc2nc(NC(=O)CCc3nc(C4=CCN(C)CC4)no3)sc2c1 |  | 12.6 µM [falling, partial curve] |

| Compound | AC50 [1] | AC50 [2] |
| --- | --- | --- |
| O=[N+]([O-])/C=C/c1ccccc1 | 5.01 µM [rising, partial curve, poor fit] | 15.8 µM [falling, full curve] |
| COc1cccc(-n2c(/C=C\c3ccc(Cl)cc3)nc3ccccc3c2=O)c1 |  | 12.6 µM [falling, partial curve] |
| CCCN(CCC)[C@@H]1CCc2cccc(O)c2C1 | 0.0501 µM [rising, full curve, poor fit] |  |
| Cc1ccccc1-c1nn2c(=O)cc(CN3CCN(C(=O)COc4ccccc4Cl)CC3)nc2s1 |  | 25.1 µM [falling, single point] |
| Cc1ccc(-n2c(/C=C\c3ccc(F)c(F)c3)nc3ccccc3c2=O)c(C)c1 |  | 3.98 µM [falling, partial curve] |
| C[C@H]1C[C@H](C)C(=O)[C@@H]([C@H](O)CC2CC(=O)NC(=O)C2)C1 |  | 794 nM [falling, partial curve] and 251 nM [falling, full curve] |
| Cc1cc(S(=O)(=O)NCC(C)C)ccc1OCC(=O)N1CCN(Cc2ccccc2)CC1 |  | 12.6 µM [falling, partial curve] |
| COc1cccc(/C=C/c2nc3ccccc3c(=O)n2-c2ccc(Cl)cc2)c1OC |  | 15.8 µM [falling, partial curve] |
| CN1Cc2ccccc2[C@@H]2c3cccc4[nH]cc(c34)C[C@H]21 |  | 31.6 µM [falling, partial curve] |
| COc1ccc(C)cc1NC(=O)c1cccn(Cc2cccc([N+](=O)[O-])c2)c1=O |  | 1.58 µM [falling, full curve] |
| C[C@H]1CCCC(=O)CCC/C=C/c2cc(O)cc(O)c2C(=O)O1 |  | 31.6 µM [falling, partial curve] and 20 µM [falling, partial curve] |
| Cc1ccc(-n2c(/C=C/c3cccs3)nc3ccccc3c2=O)cc1C |  | 31.6 µM [falling, partial curve] |
| CCCCCCN=C(CC)c1c(O)n(CCCC)c(=O)[nH]c1=O |  | 39.8 µM [falling, single point] |
| CCOC(=O)c1c(C)n(Cc2ccccc2)c2ccc(OCC(O)CN3C(=O)CNC3=O)cc12 (stereo not drawn) |  | 25.1 µM [falling, single point] |
| Cc1c(C(=O)c2ccc3ccccc3c2)c2cccc3c2n1[C@H](CN1CCOCC1)CO3 |  | 31.6 µM [falling, partial curve] |
| CSc1ccc(CN2CCN(C(=O)COc3ccc(C)cc3)CC2)cc1 |  | 31.6 µM [falling, single point] |
| CCCCn1c(O)c(C(CC)=NCCc2ccccc2)c(=O)[nH]c1=O |  | 31.6 µM [falling, single point] |
| Cc1ccc(NC(=[OH+])c2cc3ccccc3cc2O)c(C)c1.Cc1ccc(NC(=[OH+])c2cc3ccccc3cc2O)c(C)c1.[Ni] |  | 3.98 µM [falling, partial curve] |
